Paper PMC7211012
No constants are given. Whether binding was seen depends on the method and setting. Binding seen in cells or lysates may run through a third protein. Some entries that bind do so weakly or less than the wild type. Sequences can lack the tags named with a protein.

Amino acid sequences for entries named in this document (tags omitted).
UniProt A0MES8: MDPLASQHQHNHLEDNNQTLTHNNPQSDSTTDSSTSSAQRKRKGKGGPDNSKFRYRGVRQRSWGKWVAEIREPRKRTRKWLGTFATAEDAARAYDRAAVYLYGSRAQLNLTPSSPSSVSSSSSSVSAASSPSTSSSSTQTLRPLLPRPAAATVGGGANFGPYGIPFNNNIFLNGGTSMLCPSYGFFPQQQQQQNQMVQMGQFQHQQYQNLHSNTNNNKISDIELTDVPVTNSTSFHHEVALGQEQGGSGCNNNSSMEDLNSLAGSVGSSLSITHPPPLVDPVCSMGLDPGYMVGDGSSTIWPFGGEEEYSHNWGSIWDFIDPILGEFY

T1: ABI3 (ABA-insensitive 3), fused to a part of YFP for BiFC (Arabidopsis thaliana) (UniProt Q01593)
T1 sequence: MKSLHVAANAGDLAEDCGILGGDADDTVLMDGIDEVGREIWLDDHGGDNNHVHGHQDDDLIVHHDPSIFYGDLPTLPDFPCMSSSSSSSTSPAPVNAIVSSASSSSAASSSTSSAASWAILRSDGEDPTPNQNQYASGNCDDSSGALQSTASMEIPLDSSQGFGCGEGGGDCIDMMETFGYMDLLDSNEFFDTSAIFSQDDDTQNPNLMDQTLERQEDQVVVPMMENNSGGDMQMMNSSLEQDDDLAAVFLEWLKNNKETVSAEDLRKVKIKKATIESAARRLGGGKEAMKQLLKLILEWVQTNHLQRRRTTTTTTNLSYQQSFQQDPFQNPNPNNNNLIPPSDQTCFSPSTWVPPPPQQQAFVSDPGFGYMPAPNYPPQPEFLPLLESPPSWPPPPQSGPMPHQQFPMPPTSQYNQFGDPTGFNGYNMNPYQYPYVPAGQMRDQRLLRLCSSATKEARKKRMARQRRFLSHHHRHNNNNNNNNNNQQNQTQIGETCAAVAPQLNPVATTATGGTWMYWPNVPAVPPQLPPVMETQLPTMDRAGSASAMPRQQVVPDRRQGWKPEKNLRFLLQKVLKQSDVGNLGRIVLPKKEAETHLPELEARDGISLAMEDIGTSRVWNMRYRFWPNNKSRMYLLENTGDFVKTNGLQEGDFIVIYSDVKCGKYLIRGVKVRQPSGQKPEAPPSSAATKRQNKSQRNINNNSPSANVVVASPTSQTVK

T2: c-myc-ABI3 (Arabidopsis thaliana) (UniProt Q01593)
T2 sequence: T1 sequence

B1: NBR1ΔUBA (NBR1 with a C-terminal deletion of 87 amino acids), fused to a part of YFP for BiFC (domain or fragment, UniProt Q9SB64 1-617)
chain: MESTANALVVKVSYGGVLRRFRVPVKANGQLDLEMAGLKEKIAALFNLSADAELSLTYSDEDGDVVALVDDNDLFDVTNQRLKFLKINVNAGVSTNSAAPESSGSSTPAGMPNPVSKIQKGINDVLMAVPNPMRDTISKVYMDLASKASTSSPVVGEMLDCISKLGQLSIPQESSPCSPVTKPGSSGASLSRDVPSAGGKKDISERTQTGRKPVNLNEPTGAHSKTSGHVPNSSGLGANFNECPFSGSTMNYSCPNPVNLNKHPRRVCHSKKSTNGDYWTSLGVFHKGIRCDGCGVLPITGPRFKSKVKEDYDLCTICYSVMGNEGDYTRMDKPVSVQHLHPFRGPFTQFPNPWLSHPVPRATNGGAPLRCTRPKLDSRFVLDVNVIDGTVVAPSAPFTKIWKMRNSGSLVWPQGTQIVWIGGDRFCNSLSVDLQIPKEGVPIYSELDVKVDFVAPELPGRYISYWRMATSDGAKFGQRVWVLIHVDASLKNSVVNEFHGLNLNASPSLDENFPSEFLGIMNYESAQPGSSSVNPGTVKGTDLEGEVGETQAVEKENLLVGEAHPAIPHGHSPSSSSSSFNMVDFPSMPAVEVLSGGSSSTTKDVPVPLQEDIEKND
B2: GST-NBR1ΔUBA (NBR1 with a C-terminal deletion of 87 amino acids, N-terminal GST) (domain or fragment, UniProt Q9SB64 1-617)
chain: B1 chain

Tests used:
[1] = biological target: ABI4 (ABA-insensitive 4), fused to a part of YFP for BiFC (Arabidopsis thaliana) (UniProt A0MES8); assay: split reporter; BiFC in Nicotiana benthamiana leaves, 2 days after agroinfiltration; proteins fused to the N-terminal or C-terminal part of YFP; YFP signal by confocal microscopy (488 nm laser, 515/30 filter)
[2] = biological target: T1, ABI3 (ABA-insensitive 3), fused to a part of YFP for BiFC (Arabidopsis thaliana); assay: as above
[3] = biological target: c-myc-ABI4 (Arabidopsis thaliana) (UniProt A0MES8); assay: pull-down; c-myc-tagged ABI3, ABI4 or ABI5 held on anti-c-myc affinity gel; crude E. coli extracts with GST fusion proteins incubated at 4 °C overnight; 6 washes with RIPA buffer; immunoblot with anti-GST and anti-c-myc; only the target purified
[4] = biological target: T2, c-myc-ABI3 (Arabidopsis thaliana); assay: as above

Binder | binding [1] | binding [2] | binding [3] | binding [4]
B1 | binds | binds |  | 
B2 |  |  | binds | binds
